Measurements published in patent US20200148778A1.
These are yes or no findings as the source states them, for the method shown. Some results given as binding are weak or reduced against the parent protein; the word gives no strength.

By UniProt entry, the sequences of proteins in these tests, tags left out. Residues count along the entry.
UniProt P25942, residues 21-193: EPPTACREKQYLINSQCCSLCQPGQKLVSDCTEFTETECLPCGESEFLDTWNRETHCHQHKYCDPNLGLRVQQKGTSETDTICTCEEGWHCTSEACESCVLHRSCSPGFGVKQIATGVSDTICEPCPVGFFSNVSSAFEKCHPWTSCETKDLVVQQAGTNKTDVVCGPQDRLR

B1: humanized anti-CD40 antibody hu2H6 (H1b heavy chain and L1c light chain) (antibody, human IgG1, kappa, V domains shown)
VH: QVQLVQSGAEVKKPGSSVKVSCKASGYAFSDYLIEWVRQAPGQGLEWMGVINPGSGGSNYNEKIKDRVTLTADKSTSTAYMELSSLRSEDTAVYYCARGGGGFTYWGQGTLVTVSS
VL: DIQLTQSPSSLSASVGDRVTITCRASQDISNYLNWYQQKPGKTIKLLLNFASRLHSGVPSRFSGSGSGTDFTFTISSLQPEDIATYYCQQGSTLPWTFGGGTKVEIKR
B2: humanized anti-CD40 antibody hu9E5 (H1c heavy chain and L1a light chain) (antibody, human IgG1, kappa, V domains shown)
VH: QVQLVQSGAEVKKPGASVKVSCKASGYILTTYWITWVRQAPGQGLEWMGDIHPGSGSTKYNEKFKSRVTLTVDTSISTAYMELSRLRSEDTAVYYCARRDYWGQGTTVTVSS
VL: DIVMTQSPLSLPVTPGEPASISCRSSQNIVNSQGNTYLEWYLQKPGQSPQLLIYKVTNRFSGVPDRFSGSGSGTDFTLKISRVEAEDVGVYYCFQASLVPWTFGGGTKVEIKR

Target: His-tagged human CD40 (h-CD40-his) recombinant protein (human) (UniProt P25942)
Test: ELISA

Binder | binding
B1 | binds
B2 | binds
